From publication PMC8534798
Results are given in words; binding and its absence hold for the method and conditions named. Binding seen in cells or lysates may run through a third protein. Where a sequence is shown, tags or fusion partners need not be part of it.

Molecular target: T1, Flag-Foxd4l1.1 (Xenopus) (UniProt Q9PRJ8)
T1 sequence: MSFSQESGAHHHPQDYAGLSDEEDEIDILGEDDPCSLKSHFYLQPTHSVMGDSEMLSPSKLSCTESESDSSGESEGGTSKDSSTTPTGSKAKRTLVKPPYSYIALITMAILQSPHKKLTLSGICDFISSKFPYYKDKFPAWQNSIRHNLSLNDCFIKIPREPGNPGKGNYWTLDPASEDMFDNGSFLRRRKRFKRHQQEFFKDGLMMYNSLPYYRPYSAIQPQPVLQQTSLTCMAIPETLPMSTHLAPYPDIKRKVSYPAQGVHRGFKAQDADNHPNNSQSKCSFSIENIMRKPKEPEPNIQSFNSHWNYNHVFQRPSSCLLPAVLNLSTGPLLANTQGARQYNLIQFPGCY
Assay: co-IP; Xenopus embryos co-injected with Flag-foxd4l1.1 and HA-smad2/HA-smad3 (wild type or truncated) mRNA at the one-cell stage, harvested at stage 10.5 or 11; cleared lysates incubated overnight at 4 °C with anti-Flag, protein A/G beads; Western blot with anti-HA

Row | Substance | binding
1 | HA-Smad2-ΔC (human) (domain or fragment) | no binding
2 | HA-Smad3-ΔC (human) (domain or fragment) | no binding
